Calls as published in the ROBIN set (doi:10.1002/anie.202211358).

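The test is a small-molecule microarray: each compound is printed twice on a reactive slide, and binding shows as fluorescence of the labelled oligonucleotide after washing. For the PreQ1, TPP and SAM-II riboswitches the laboratory earlier reported (doi:10.1038/s41467-019-09493-3) 1 µM RNA, 2 h, and a rule that included a mean Z-score above 3 (spot signal-to-noise against the whole library), a score well above that on a control array, and duplicate spots agreeing (coefficient of variation under 100). The data file gives only the calls; its cut-offs may differ, and compounds hitting several targets are kept. These are primary screening calls, not affinities; a compound without a hit may have attached poorly or may still bind in solution.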
Key: hit = hit, no hit = tested without a hit.
Compounds were drawn at random from those tested, without regard to their results.
A target missing from an entry has no call listed here.

Targets, with sequences 5′ to 3′:
SAM-II: SAM-II riboswitch RNA pseudoknot, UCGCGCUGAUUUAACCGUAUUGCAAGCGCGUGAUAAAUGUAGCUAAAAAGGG. About 200 hits among about 21,000 compounds.
PreQ1: PreQ1 riboswitch RNA pseudoknot, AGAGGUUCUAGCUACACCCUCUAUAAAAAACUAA. From B. subtilis. About 170 hits among about 24,000 compounds.
TPP: TPP riboswitch RNA three-way junction, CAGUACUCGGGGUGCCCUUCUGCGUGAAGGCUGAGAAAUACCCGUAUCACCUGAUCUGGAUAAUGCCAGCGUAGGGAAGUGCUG. About 160 hits among about 24,000 compounds.

* Cc1cc(N)n(CC(=O)N2CCC(c3nccn3Cc3ccccn3)CC2)n1 : SAM-II: no hit; PreQ1: no hit; TPP: no hit
* Cn1nc(CO)c2c1CCN(C(=O)c1cnc(Nc3ccccc3)nc1)C2 : SAM-II: no hit; PreQ1: no hit; TPP: no hit
* Cc1cccc2nc(CNc3ccc(Cl)c(Cl)c3)cn12 : SAM-II: no hit; PreQ1: no hit; TPP: no hit
* Cc1ccc(S(N)(=O)=O)cc1C(=O)N[C@H]1CC[C@H]1N : SAM-II: no hit; PreQ1: no hit; TPP: no hit
* Cc1ccc(-c2ncn(-c3ccc(Nc4nccc(-c5cccc(N6CCOCC6)c5)n4)cc3)n2)cn1 : SAM-II: no hit; PreQ1: no hit; TPP: no hit
* Cl.OC(CN1C2=NCCCN2c2ccccc21)c1ccc2c(c1)OCO2 (centres unmarked) : SAM-II: no hit; PreQ1: no hit; TPP: no hit
* COc1ccc(-c2cc(CNC3CCN(c4ncccn4)CC3)no2)cc1 : SAM-II: no hit; PreQ1: no hit; TPP: no hit
* OCCCn1cnc(-c2ccccc2)c1-c1ccc(Cl)s1 : SAM-II: no hit; PreQ1: no hit; TPP: no hit
* O=C1N/C(=N\c2nc3ccccc3[nH]2)c2ccccc21 : SAM-II: no hit; PreQ1: no hit; TPP: no hit
* CC1=C(C(=O)NCCCc2csc(N)n2)C(C)NC(=O)N1 (centres unmarked) : SAM-II: no hit; PreQ1: no hit; TPP: no hit
* Cc1c(Cl)c(C(=O)N2[C@H]3CCNC[C@@H]2CC3)nn1C : SAM-II: no hit; PreQ1: no hit; TPP: no hit
* Cc1nc2ccccn2c1-c1csc(Nc2ccc(Br)cc2)n1 : SAM-II: no hit; PreQ1: no hit; TPP: no hit
* Cc1ccccc1-n1c(Cn2cnc3c(N)ncnc32)nc2cccc(C)c2c1=O : SAM-II: no hit; PreQ1: no hit; TPP: no hit
* Nc1nc(-c2ccc(Br)cc2)cs1 : SAM-II: no hit; PreQ1: no hit; TPP: no hit
* N#CC1=C(N)Oc2[nH]nc(-c3ccc(F)cc3)c2C12C(=O)Nc1ccccc12 (centres unmarked) : SAM-II: no hit; PreQ1: no hit; TPP: no hit
* O=C(NCc1cnc2ccccc2c1)C1CC2(CCNCC2)CN1 (centres unmarked) : SAM-II: no hit; PreQ1: no hit; TPP: no hit
* O=C(Nc1cccc2ccccc12)c1ccccc1 : SAM-II: no hit; PreQ1: no hit; TPP: no hit
* CC1(C)CCCC2(C)C(OCCO)=CC(=O)C=C12 (centres unmarked) : SAM-II: no hit; PreQ1: hit; TPP: no hit
* O=c1oc2ccccc2cc1-c1csc(Nc2ccccc2)n1 : SAM-II: no hit; PreQ1: no hit; TPP: no hit
* O=C1CCCN1CC#CCN1CCCC1 : SAM-II: no hit; PreQ1: no hit; TPP: no hit
* COc1ccccc1-c1c(C)nn2c(NCCCN3CCCC3=O)cc(C)nc12 : SAM-II: no hit; PreQ1: no hit; TPP: no hit
* Cc1nn(-c2ccccc2)c2c1C1(C(=O)Nc3ccc(Br)cc31)C(C#N)=C(N)O2 (centres unmarked) : SAM-II: no hit; PreQ1: no hit; TPP: no hit
* COc1cc(C2CC(=O)Nc3nc(N)sc32)ccc1OC1CCCC1 (centres unmarked) : SAM-II: no hit; PreQ1: no hit; TPP: no hit
* COc1cc(OC)cc(-c2cc(N)n(S(=O)(=O)c3ccccc3)n2)c1 : SAM-II: no hit; PreQ1: no hit; TPP: no hit
* NNC(=O)c1nnsc1-c1csnn1 : SAM-II: no hit; PreQ1: no hit; TPP: no hit
* COCCN1CCCC2(CCN(C(=O)c3cn(CCN)nn3)C2)C1=O (centres unmarked) : SAM-II: no hit; PreQ1: no hit; TPP: no hit
* Cc1ccc(-c2cc(C(=O)NCC(O)c3cccc(C(F)(F)F)c3)[nH]n2)o1 (centres unmarked) : SAM-II: no hit; PreQ1: no hit; TPP: no hit
* O=C(NCCNCC1(O)CCCNC1)c1ccc(F)cc1 (centres unmarked) : SAM-II: no hit; PreQ1: no hit; TPP: no hit
* CSc1cccc(NC(=O)c2cc3c(CO)cnc(C)c3oc2=O)c1 : SAM-II: no hit; PreQ1: no hit; TPP: no hit
* N#Cc1nc(-c2ccc(COc3ccc(Br)cc3)o2)oc1NCc1ccco1 : PreQ1: no hit; TPP: no hit
* C=CCn1c(N)cc(=O)nc1SCC(=O)Nc1cc(C)on1 : SAM-II: no hit; PreQ1: no hit; TPP: no hit

Some entries from above, unchanged:

| Compound | SAM-II | PreQ1 | TPP |
|---|---|---|---|
| `Cl.OC(CN1C2=NCCCN2c2ccccc21)c1ccc2c(c1)OCO2` (centres unmarked) | no hit | no hit | no hit |
| `COc1cc(C2CC(=O)Nc3nc(N)sc32)ccc1OC1CCCC1` (centres unmarked) | no hit | no hit | no hit |
| `O=C(Nc1cccc2ccccc12)c1ccccc1` | no hit | no hit | no hit |
| `COCCN1CCCC2(CCN(C(=O)c3cn(CCN)nn3)C2)C1=O` (centres unmarked) | no hit | no hit | no hit |